Laboratory results reported in patent publication US11044911B2, “Phenoxyurea compound and pest control agent” (Nippon Soda Co., Ltd., priority 2018, dated 2021).
Some entries share one result that the patent states for a list of compounds.

System: organophosphorus-resistant Tetranychus urticae
Experiment: Test Example 2: efficacy test 1 against Tetranychus urticae (spray on kidney bean plants)
Format: in vivo
Details: organophosphorus-resistant strain, 125 ppm spray, 10 days

## CCN(Oc1cc(Br)cc(C(F)(F)F)c1)C(=O)NC(C)(C)C(=O)NCC(F)(F)F [Compound 1-1, 2-{3-[3-Bromo-5-(trifluoromethyl)phenoxy]-3-ethylureido}-2-methyl-N-(2,2,2-trifluoroethyl)propanamide]
  insecticidal rate against Tetranychus urticae: ≥ 90%

## CCN(Oc1cc(Br)cc(C(F)(F)F)c1)C(=O)NC(C)(C)C(=O)NC(C)C [Compound 1-2]
  insecticidal rate against Tetranychus urticae: ≥ 90%
